Data published in PubChem BioAssay AID540276 (National Center for Advancing Translational Sciences (NCATS), 2011).
Several values for one entry are separate records, joined by “and”; a condition that tells them apart may be missing. Equal entries are not always repeated. Hit rate of the full screen: of about 300,000 compounds, about 5,400 (1.8%) were called active. This list was built around the results that the source calls inconclusive (neither active nor inactive); the mix of calls is not that of the screen. Calls follow the shape of the full dose curve; tested in HEK293 cells. Potencies of inconclusive entries are doubtful fits and often do not repeat.
% is scaled to controls: 0 for no effect and ±100 for the full control effect; potency is read from the fitted curve at half-maximal effect.

Assay: qHTS for inhibitors of binding or entry into cells for Marburg Virus
Details: Marburg virus pseudotyped entry inhibition, cell reporter; activity change, negative = inhibition: at 37.8 µM (top of the series) unless noted
In the case of CCN1CCN(C(=O)c2cccc(OC3CCN(S(=O)(=O)N(C)C)CC3)c2)CC1, the “activity change, negative = inhibition” value is reported as inactive: 19.4%.
With Cc1ccccc1OCC(O)CN(CCO)Cc1ccccc1 (stereo not drawn) the “activity change, negative = inhibition” value was inactive: -0.376% [at 46.1 µM].
In the case of CCN(C#N)c1nc(N(C)C)nc(N(C)C)n1, the “activity change, negative = inhibition” value is reported as inactive: 19.2%.
In the case of Cc1ccc(C)c(Cn2nc(-c3cc(C)ccc3C)ccc2=O)c1, the Potency is reported as inconclusive: 0.891 µM [inhibitor, full curve, poor fit].
In the case of Cc1ccc(CNC(=O)CSc2nnc3c(n2)[nH]c2ccc(F)cc23)cc1, the Potency is reported as inconclusive: 1 µM [inhibitor, full curve, poor fit].
With CC1(C)CC(=O)C2=C(C1)NC(=O)NC2c1ccc(Cl)cc1 (stereo not drawn) the “activity change, negative = inhibition” value was inactive: -16.3% [at 46.1 µM].
With O=C(O)C1CC(=O)N(c2ccc(Br)cc2)C1 (stereo not drawn) the “activity change, negative = inhibition” value was inactive: -4.4%.
In the case of O=C(NCCc1ccccc1)c1ccc(CSc2nc3ccncc3n2Cc2ccc(F)cc2)cc1, the “activity change, negative = inhibition” value is reported as inactive: 7.07% [at 46.1 µM].
In the case of COc1ccc(C(=O)NC(=O)COC(=O)CCS(=O)(=O)c2ccc(C)cc2)cc1, the Potency is reported as inconclusive: 0.0891 µM [inhibitor, full curve, poor fit].
For Cc1nc2ccccn2c1P(=S)(N1CCCCC1)N1CCCCC1, the Potency was inconclusive: 35.5 µM [inhibitor, single point].
With COc1ccc(Cc2nnc(Nc3ccc4c(c3)OCCO4)[nH]c2=O)cc1 the Potency was inconclusive: 8.91 µM [inhibitor, partial curve, poor fit].
For CCc1ccc(NC(=O)CSc2nc3n[nH]c(C)c3c(=N)n2-c2cccc(OC)c2)cc1, the Potency was inconclusive: 25.9 µM [inhibitor, single point].
With CCOC(=O)N/N=C/c1cc(OC)c(O)c(OC)c1 the Potency was inconclusive: 0.224 µM [inhibitor, full curve, poor fit].
With COc1cccc(CNCCSc2nnnn2C)c1OCc1ccccc1F the Potency was inconclusive: 35.5 µM [inhibitor, single point].
For COc1ccc(CCNC2CC(C)N(C)CC2C)cc1OC (stereo not drawn), the Potency was inconclusive: 29.1 µM [inhibitor, single point].
For CN(C)CCCNC1=CC(=O)OC12CCCCC2, the Potency was inconclusive: 31.6 µM [activator, single point].
In the case of CCOc1cc(/C=N/N=C(\N)c2nonc2N)cc(Br)c1OCc1cccc2ccccc12, the Potency is reported as inconclusive: 10 µM [inhibitor, partial curve, poor fit].
With COc1ccc(CNC(=S)Nc2cccc(OC)c2)cc1 the Potency was inconclusive: 6.31 µM [activator, single point].
For CCOc1ccc(CCNC(=O)COC(=O)c2ccc(S(=O)(=O)N3CCCC3)cc2)cc1OCC, the “activity change, negative = inhibition” value was inactive: 6.15% [at 46.1 µM].
With O=[N+]([O-])c1ccc(Cl)c(S(=O)(=O)/N=C(/c2ccccc2)N2CCOCC2)c1 the “activity change, negative = inhibition” value was inactive: 2.57% [at 46.1 µM].
For CCc1nn(CC(=O)N2CCN(Cc3ccc4c(c3)OCO4)CC2)c(=O)c2cc3occc3n12, the Potency was inconclusive: 11.2 µM [inhibitor, single point].
In the case of CCc1ccc2oc(C(=O)Nc3sc4c(c3C(=O)NC)CCCC4)cc(=O)c2c1, the “activity change, negative = inhibition” value is reported as inactive: -6.43% [at 46.1 µM].
In the case of CC(=O)OC1C2CCCC1C(N1CCCC1)CC2 (stereo not drawn), the Potency is reported as inconclusive: 2 µM [inhibitor, full curve].
For Cc1cc(C(=O)N/N=C/c2cc(Br)ccc2OC(=O)c2ccccc2Cl)n[nH]1, the Potency was active: 10 µM.
For COc1ccc2nc(N3CCC(C)CC3)c(C#N)cc2c1, the Potency was inconclusive: 1.46 µM [activator, full curve, poor fit].
In the case of Cc1nnc(SC(C)C)n(N)c1=O, the Potency is reported as inconclusive: 0.355 µM [inhibitor, full curve, poor fit].
In the case of Cc1cc(C)n(C(=O)CNc2ccc(C)c(C)c2)n1, the “activity change, negative = inhibition” value is reported as inactive: -11.2%.
With O=C(NC(=O)N1CCN(C(c2ccccc2)c2ccccc2)CC1)c1ccccc1 the Potency was inconclusive: 17.8 µM [inhibitor, single point].
With O=C(COc1ncnc2ccccc12)NCCc1ccc(F)cc1 the Potency was inconclusive: 6.31 µM [activator, single point].
With CCC(=O)/C(=C(/O)c1ccccc1)c1nc2ccccc2[nH]1 the Potency was inconclusive: 35.5 µM [inhibitor, single point].
For C=C1C(=O)[C@@]23[C@H](O)C[C@@H]4C(C)(C)CC[C@H](O)[C@@]4(C)[C@@H]2CC[C@@H]1[C@H]3O, the Potency was inconclusive: 5.17 µM [inhibitor, full curve, poor fit].
In the case of COc1ccc(/C=C/CN2CCN(Cc3ccc(C)cc3)C(CCO)C2)cc1 (stereo not drawn), the Potency is reported as inconclusive: 3.55 µM [inhibitor, single point].
With O=S(=O)(c1ccc(Cl)c(NC(=S)N/N=C/c2c(F)cccc2F)c1)N1CCOCC1 the Potency was inconclusive: 6.31 µM [inhibitor, partial curve, poor fit].
For CC(CCc1ccccc1)NC(=O)Cc1cccs1 (stereo not drawn), the Potency was inconclusive: 4.47 µM [activator, full curve, poor fit].
For Cc1ccc(NC(=O)c2ccc(N3CCOCC3)c([N+](=O)[O-])c2)cc1S(=O)(=O)N1CCOCC1, the Potency was inconclusive: 3.16 µM [inhibitor, single point].
In the case of CCS(=O)(=O)N1CCc2cc(OC)c(OC)cc2C1, the “activity change, negative = inhibition” value is reported as inactive: -0.417%.
For O=C(NCCc1ccccn1)/C(=C/c1ccco1)NC(=O)c1ccccc1, the “activity change, negative = inhibition” value was inactive: 2.92% [at 46.1 µM].
For COc1ccc(OC)c(-c2c3cc(O)c(=O)cc-3oc3cc(O)c(O)cc23)c1, the Potency was active: 20.6 µM.
With O=C(CCSc1nnc(-c2ccncc2)o1)Nc1ccc(F)cc1 the Potency was inconclusive: 0.0046 µM [inhibitor, full curve, poor fit].
With Cc1ccc(-n2c(SCC(=O)Nc3cccc(C)c3)nc3c(oc4ccccc43)c2=O)cc1 the Potency was inconclusive: 20 µM [inhibitor, partial curve, poor fit].
In the case of COc1ccc(N(CC2CO2)S(=O)(=O)c2ccc(C)cc2)cc1 (stereo not drawn), the “activity change, negative = inhibition” value is reported as inactive: -8.55% [at 46.1 µM].
For COc1ccc(-c2ccc3c(n2)CCCN3CC(O)CN2CCCc3nc(C)c(C)cc32)cc1 (stereo not drawn), the Potency was inconclusive: 5.96 µM [activator, single point].
For Cn1nnc2c[n+](CC(=O)c3ccc4ccccc4c3)cc(Br)c21, the Potency was active: 11.2 µM.
For COCc1cc(C)n(CC(=O)NC(C)c2ccccc2)c(=O)c1C#N (stereo not drawn), the Potency was inconclusive: 13 µM [activator, partial curve, poor fit].
In the case of O=C(COC(=O)C1=COCCO1)Nc1ccc(OC(F)F)cc1, the “activity change, negative = inhibition” value is reported as inactive: 2.76% [at 46.1 µM].
For CCCn1c(NCc2ccc(N(CC)CC)cc2)nc2ccccc21, the Potency was inconclusive: 20 µM [inhibitor, single point].
In the case of CCCN(CCC)C(=O)Cn1c(=O)n(-c2ccc(OC)cc2)c(=O)c2ccc(C(=O)NCc3ccc(C)cc3)cc21, the Potency is reported as inconclusive: 3.16 µM [inhibitor, single point].
With O=C(Nc1ccon1)c1csc2c1CCCC2 the Potency was inconclusive: 29.1 µM [activator, single point].
With O=C(Nc1ccc(C(=O)N2CCOCC2)cc1)Nc1cccc(Cl)c1 the Potency was “inactive and inconclusive: 2.24 µM [activator, partial curve]”.
In the case of S=C(Nc1ccccc1)Nc1ccc(Cl)cn1, the “activity change, negative = inhibition” value is reported as inactive: -0.239% [at 46.1 µM].
With C/C(=N\Nc1ccccc1)c1c(O)[nH]c(=O)[nH]c1=O the Potency was inconclusive: 4.47 µM [inhibitor, full curve, poor fit].
In the case of CCOC(=O)C1CCN(C(=O)C2CCN(S(=O)(=O)c3cc(Cl)ccc3Cl)CC2)CC1, the “activity change, negative = inhibition” value is reported as inactive: -1.79%.
For CCS(=O)(=O)c1ncc(N(Cc2ccc(F)cc2)Cc2ccco2)c(C(=O)Nc2cc(C)ccc2C)n1, the Potency was inconclusive: 0.631 µM [inhibitor, full curve, poor fit].
In the case of c1ccc2c(c1)NC1(CCCC1)n1c-2nc2ccccc21, the Potency is reported as inconclusive: 1.64 µM [activator, partial curve].
With Cc1csc(CN(C)C(=O)CC2C(=O)NCCN2Cc2ccc(F)c(F)c2)n1 (stereo not drawn) the “activity change, negative = inhibition” value was inactive: -15.4%.
For Cc1cc(C(=O)COC(=O)C2=COCCO2)c(C)n1-c1ccc2c(c1)OCO2, the “activity change, negative = inhibition” value was inactive: 1.23%.
In the case of O=C(CSc1nnc(-c2ccccc2)n1Cc1ccco1)Nc1ccc(S(=O)(=O)N2CCCC2)cc1, the Potency is reported as inconclusive: 32.6 µM [inhibitor, single point].
In the case of CC(=O)c1ccc(Nc2cc(C)nc3ccc(C)cc23)cc1, the Potency is reported as inconclusive: 11.2 µM [inhibitor, partial curve, poor fit].
In the case of O=C(CSc1nnc(C2COc3ccccc3O2)o1)N1CCCC1 (stereo not drawn), the “activity change, negative = inhibition” value is reported as inactive: 0.673%.
For O=S(=O)(/C=C/c1ccccc1)NCCc1ccccn1, the Potency was inconclusive: 1.12 µM [inhibitor, single point].
With CC(C)(C)c1ccc(C(=O)O[C@H]2[C@H](Cc3ccccc3)NS(=O)(=O)[C@H]3C[C@@H]4C=C[C@]23O4)cc1 the “activity change, negative = inhibition” value was inactive: -2.38%.
For Cc1ccc(N=C2NC(=O)c3cc([N+](=O)[O-])ccc32)cc1, the Potency was inconclusive: 5.62 µM [activator, single point].
For O=c1c2cc3c(cc2[nH]c(=S)n1C1CCN(Cc2ccccc2)CC1)OCO3, the Potency was inconclusive: 12.6 µM [activator, partial curve, poor fit].
For O=C(NCCSc1ccccc1)c1ccccc1, the Potency was inconclusive: 31.6 µM [inhibitor, single point].
In the case of COc1ccc(/C=N/n2cc(-c3ccccc3)nc2N)cc1, the Potency is reported as inconclusive: 2.51 µM [inhibitor, full curve, poor fit].
For COc1cccc(-c2csc(N3CCN(C(=S)Nc4ccc(Cl)cc4)CC3)n2)c1, the Potency was inconclusive: 23.1 µM [inhibitor, single point].
In the case of CCN(C(=O)CSc1nc2ccc(Cl)cc2[nH]1)C1CCS(=O)(=O)C1 (stereo not drawn), the “activity change, negative = inhibition” value is reported as inactive: 0.459%.
In the case of CCN1CCN(c2c(S(=O)(=O)c3ccc(C)c(C)c3)cnc3ccc(F)cc23)CC1, the Potency is reported as inconclusive: 12.6 µM [inhibitor, partial curve, poor fit].
